From US20090221530A1, “Relaxase Modulators and Methods of Using Same” (priority 2005, published 2009)
At least one compound was matched to its structure with a doubt left.

Chains of the proteins cited; added tags and fusions are not shown. Residues count along the entry.
UniProt P14565, 1-306: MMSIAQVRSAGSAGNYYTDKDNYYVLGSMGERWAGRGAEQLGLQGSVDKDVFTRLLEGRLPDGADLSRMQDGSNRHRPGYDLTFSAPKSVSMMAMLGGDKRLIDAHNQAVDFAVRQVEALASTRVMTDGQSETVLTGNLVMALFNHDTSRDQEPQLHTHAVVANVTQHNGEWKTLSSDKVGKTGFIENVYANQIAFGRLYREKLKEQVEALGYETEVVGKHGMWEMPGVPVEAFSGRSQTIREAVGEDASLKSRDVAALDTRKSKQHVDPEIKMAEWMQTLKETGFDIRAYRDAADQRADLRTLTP

Legend:
JS10 (F+) cells = test: Cell toxicity assay, JS10; type: cell-based, E. coli; conditions: cells including the F plasmid (F+/traI+); FIG. 4D
JS11 (F+/ΔtraI) cells = test: Cell toxicity assay, JS11; type: cell-based, E. coli; conditions: TraI removed from F+ cells; FIG. 4D
JS4 (F−) cells = test: Cell toxicity assay, JS4; type: cell-based, E. coli; conditions: cells that lack the F plasmid; FIG. 4D
F plasmid TraI N300 = target: T1, F plasmid TraI N300 (Escherichia coli, UniProt P14565); test: Fluorescence kinetic assay of oriT DNA cleavage and crossover by TraI N300; type: biochemical, E. coli
T1 construct: An amino-terminal 300 residue F plasmid TraI construct; made in house; host or cells: E. coli BL21 (DE3)/pLysS or HMS174 (DE3)/pLysS, vector pTYB2
Procedure: Reaction Buffer: 6.42 mM MgCl2, 20.5% glycerol, 153.9 mM NaCl, and 51.3 mM Tris-HCl pH 7.5. Streptavidin Wash Buffer (Tris buffered saline, TBS/Tween): and 150 mM NaCl, 25 mM Tris-HCl pH 7.5, and 0.05% Tween-20. Stopping Buffer: 1.2% sodium-dodecyl sulfate (SDS), and 300 mM EDTA pH 10. TE Buffer: 1 mM EDTA, and 10 mM Tris-HCl pH 7.4. Fluorescence Buffer: 80% glycerol, 200 mM Tris-HCl pH 8.0. Short-term N300 stock (for storage at −20° C.): 50% Reaction Buffer, 49.8% glycerol, 0.2% long-term protein solution (84.6 nM final N300 concentration). All 5× stocks except Probe stocks were diluted in Reaction Buffer. 5× Enzyme Stock: 8.4 mL short-term N300 stock diluted to 2.02 nM N300. 5× Inhibitor Stocks: imidodiphosphate (pNp) at 0-50 nM in Reaction Buffer. 5× Substrate Stocks: oligonucleotides b29 and PCb31eco diluted to […] each, by 3-fold serial dilutions. 5× Probe Stocks: […] (1.2-fold molar excess) oligonucleotide downF in TE Buffer. All reactions and procedures involving downF were assembled or performed in darkened conditions. […]
Samples were diluted to […] with Streptavidin Wash Buffer and transferred to Biobind Assembly streptavidin-coated microtiter plates (Thermo Electron Corporation, Waltham, Mass., U.S.A.) and incubated at 37° C. for 45 minutes. […] Wells were filled with 65 μL of Fluorescence Buffer for optimum 6-FAM™ fluorescence. Plates were read in a FLUOSTAR OPTIMA™ (BMG Labtech, Offenburg, Germany) with a 490 nm excitation and 520 nm emission filters (10 nm bandpass) with the gain optimized for maximum signal. […] They were then washed inverted with at least 5-fold excess Streptavidin Wash Buffer, filled with 65 μL of Fluorescence Buffer, and again read as above. […]
All timecourses were fitted by nonlinear regression with un-weighted least-squares methods using SIGMAPLOT™ 8.0 (SYSTAT Software, Inc., Point Richmond, Calif., U.S.A.) (also used for graph construction). Timecourses with blanked signals in arbitrary fluorescence units were scaled by curve mean in groups of at least four replicates, culled for outliers, and averaged by time point. […]

## O=P(O)(O)NP(=O)(O)O [pNp, imidodiphosphate]
JS10 (F+) cells
  cell viability in presence of compound: effectively killed
JS11 (F+/ΔtraI) cells
  cell viability in presence of compound: resistant
JS4 (F−) cells
  cell viability in presence of compound: resistant
F plasmid TraI N300; 10 nM inhibitor, FIG. 4B
  effect on DNA cleavage activity of the enzyme: significantly reduced
F plasmid TraI N300; DNA cleavage
  mode of inhibition: noncompetitive inhibitor
F plasmid TraI N300; DNA crossover, competitive inhibition dominant
  mode of inhibition: mixed inhibitor
